# Results as given in PubChem BioAssay (NCATS).
# The list shows a part of the results. These are further read-outs of the screen, such as a control signal, another cell line or another target. No call is given for them. The list favours compounds with an active or inconclusive main result. Potencies come from curve fits of mixed quality, noted in brackets.
# Experiment: A High-Content qHTS Against Drug Library for the Identification of Small Molecules that Inhibit DYT1 Early Onset Primary Dystonia-Associated Cell Pathology (AID 1645839)
# Conditions: HEK293 Flp-In EGFP-delE TorsinA, punctate imaging, 48 h; measured here: cell count cytotoxicity
# Summary of the method: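 Readout: %pathology, the punctate EGFP-TorsinA distribution from imaging, as the primary channel and cell count as the toxicity counterscreen. HEK293 Flp-In cells expressing delE TorsinA were induced with tetracycline and treated with compound for 48 h.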
row,SMILES,AC50
1,Cc1cc(OCCOCC[N+](C)(C)Cc2ccccc2)ccc1C(C)(C)CC(C)(C)C,"12.6 µM [falling, single point]"
2,CCN(CC)CCOC(=O)C(c1ccccc1)C1CCCCC1 (stereo not given),"20 µM [falling, single point]"
3,CC(=O)CCC(=O)O,"35.5 µM [falling, single point]"
4,CCOc1ncc(F)c(=O)[nH]1,"14.1 µM [rising, single point]"
5,CCC1=C(C)CN(C(=O)NCCc2ccc(S(=O)(=O)NC(=O)NC3CCC(C)CC3)cc2)C1=O (stereo not given),"35.5 µM [falling, single point]"
6,O=C(CN1CCN(Cc2ccc3c(c2)OCO3)CC1)N1c2ccccc2Sc2ccccc21,"8.91 µM [falling, partial curve]"
7,O=C(/C=C/c1ccccc1)NCCO,"22.4 µM [falling, single point]"
8,CC(=O)Nc1ccc(OCCOCCOc2ccc(NC(C)=O)cc2)cc1,"10 µM [falling, partial curve, poor fit]"
9,CCCc1ccc(OCC(=O)N2CCN(C(=O)COc3ccc(CCC)cc3OC)CC2)c(OC)c1,"10 µM [falling, partial curve, poor fit]"
10,Cc1ccc(N)cc1O,"12.6 µM [falling, full curve]"
11,NC(N)=NCCN1CCCCCCC1,"0.214 µM [falling, single point]"
12,CC(=O)N(CC(O)CO)c1c(I)c(C(=O)NCC(O)CO)c(I)c(C(=O)NCC(O)CO)c1I (stereo not given),"10 µM [falling, partial curve, poor fit]"
13,Oc1ccc(CCNCCCCCCNCCc2ccccc2)cc1O,"35.5 µM [falling, partial curve, poor fit]"
14,C/C(=C(/OCCOc1ccc(Cl)cc1)c1ccc(Cl)cc1Cl)n1ccnc1,"31.6 µM [falling, single point]"
15,CN1CCCC(CC2c3ccccc3Sc3ccccc32)C1 (stereo not given),"7.08 µM [falling, partial curve, poor fit]"
17,CCOC(=O)c1ccc(O)c(O)c1,"6.31 µM [falling, partial curve, poor fit]"
18,O=C1OC2(c3ccc(O)cc3Oc3cc(O)ccc32)c2ccccc21,"6.31 µM [falling, single point]"
19,C[C@@]12C(=O)OC(=O)[C@]1(C)C1CCC2O1,"3.98 µM [falling, full curve]"
20,CC(=O)OC[C@H]1O[C@@H](OC(C)=O)[C@H](OC(C)=O)[C@@H]1OC(C)=O,"4.47 µM [rising, partial curve]"

# Some of the entries so far, as tab-separated lines.
row	SMILES	AC50
8	CC(=O)Nc1ccc(OCCOCCOc2ccc(NC(C)=O)cc2)cc1	10 µM [falling, partial curve, poor fit]
9	CCCc1ccc(OCC(=O)N2CCN(C(=O)COc3ccc(CCC)cc3OC)CC2)c(OC)c1	10 µM [falling, partial curve, poor fit]

# (listing goes on)

row,SMILES,AC50
1,CC(N)CCCC(C)(C)O (stereo not given),"2.82 µM [falling, full curve]"
2,C[C@H]1O[C@H](O[C@H]2[C@H](O)[C@@H](O)[C@@H](O[C@H]3[C@H](O)[C@@H](O)[C@H](O)O[C@@H]3CO)O[C@@H]2CO)[C@H](O)[C@@H](O)[C@@H]1N[C@H]1C=C(CO)[C@@H](O)[C@H](O)[C@H]1O,"7.08 µM [falling, partial curve]"
3,CN(C)c1cc(NC(=O)CNC(C)(C)C)c(O)c2c1C[C@@H]1C[C@H]3[C@H](N(C)C)C(=O)C(C(N)=O)=C(O)[C@@]3(O)C(=O)C1=C2O,"35.5 µM [rising, single point]"
4,CC[C@H](c1ccc(O)cc1)[C@@H](CC)c1ccc(O)cc1,"11.2 µM [falling, single point]"
5,CN1CCC(N(Cc2cccs2)c2ccccc2)CC1,"7.08 µM [falling, full curve, poor fit]"
6,CCc1oc2ccccc2c1C(=O)c1cc(Br)c(O)c(Br)c1,"35.5 µM [falling, single point]"
7,NS(=O)(=O)c1cc2c(cc1C(F)(F)F)NCNS2(=O)=O,"5.62 µM [rising, single point]"
8,CCCCNc1ccc(C(=O)OCCN(CC)CC)cc1,"7.94 µM [falling, partial curve, poor fit]"
9,NC1[C@H]2CN(c3nc4c(cc3F)c(=O)c(C(=O)O)cn4-c3ccc(F)cc3F)C[C@@H]12 (stereo not given in full),"10 µM [falling, partial curve]"
10,CCCCCC(C)N (stereo not given),"8.91 µM [falling, single point]"
11,CN1CCCCC1CCN1c2ccccc2Sc2ccc(S(C)=O)cc21 (stereo not given),"7.94 µM [falling, partial curve, poor fit]"
12,COC(=O)Nc1nc2ccc(C(=O)C3CC3)cc2[nH]1,"1.26 µM [falling, partial curve, poor fit]"
13,CCOC(=O)C(=O)c1csc(NC=O)n1,"12.6 µM [rising, single point]"
14,Cc1ccc(-c2ccccc2C#N)cc1,"35.5 µM [rising, single point]"
15,CCN(CC)CCN,"14.1 µM [falling, single point]"
16,COc1cccc(CCc2ccccc2OCC(CN(C)C)OC(=O)CCC(=O)O)c1 (stereo not given),"8.91 µM [falling, partial curve, poor fit]"
17,COc1cc(NC(C)CCCN)c2ncccc2c1 (stereo not given),"6.31 µM [falling, partial curve]"
18,CC[C@@H]([C@H](C)O)n1ncn(-c2ccc(N3CCN(c4ccc(OC[C@@H]5CO[C@@](Cn6cncn6)(c6ccc(F)cc6F)C5)cc4)CC3)cc2)c1=O,"6.31 µM [falling, single point]"
19,COc1ccc2cc([C@H](C)C(=O)O)ccc2c1,"35.5 µM [rising, single point]"
20,CN1CCN(CCCN2c3ccccc3Sc3ccc(S(=O)(=O)N(C)C)cc32)CC1,"1.26 µM [falling, full curve, poor fit]"
